This note sets out measurements from US12310947B2, “Methods and compositions for unsilencing imprinted genes” (priority 2019, dated 2025).

For the test, the system named is paternal Ube3a-YFP. Put plainly: In vivo unsilencing of paternal Ube3a-YFP, brain immunohistochemistry after IP injection in Ube3a^m+/pYFP mice. Also noted: species or system mouse. The settings on record: 2 mg/kg IP at P11, brain at P13, Ube3a^m+/pYFP mice. On the procedure: Saline treated wild type and Ube3a^m+/pYFP mice served as immunohistochemistry controls showing the absence of GFP-immunoreactivity in wild type mice (FIG. 14B) and expected paternal UBE3A-YFP protein expression in glial cells and in newly generated immature neurons in Ube3a^m+/pYFP mice (FIG. 14C; Judson et al. J Comp Neurol 2014 522(8):1874-96), respectively.
P13 mice were deeply anesthetized with euthasol (100 mg/kg, i.p.) prior to transcardial perfusion with phosphate-buffered saline (PBS), pH 7.4, followed by phosphate-buffered 4% paraformaldehyde, pH 7.4. Perfused brains were postfixed overnight and cryoprotected with 30% sucrose in PBS, pH 7.4, for two days. Cryoprotected brains were frozen on dry ice and cut into 40 μm-thick sections with a sliding microtome (Thermo Scientific, Kalamazoo, MI, USA). Sections were stored in a cryopreservative solution (by volume: 45% PBS, 30% ethylene glycol, 25% glycerol) at −20° C. until they were processed for free-floating immunohistochemistry (IHC). For IHC, sections were rinsed several times in PBS before blocking in PBS plus 5% normal goat serum and 0.2% Triton-X-100 (NGST) for 1 hour at room temperature. Sections were incubated with rabbit anti-GFP (1:1000, NB 600308, Novus Biologicals) and mouse anti-NeuN (1:500, MAB 377, Millipore) primary antibodies diluted in NGST for 48 hours at 4° C. […]

For the molecule `C[C@H](C(=O)Nc1cc(C2CC2)[nH]n1)c1ccc(N2CCCC2=O)cc1` [PHA533533], the “costaining of GFP and neuronal marker NeuN, hippocampal CA3 region” value was “near-complete co-localization”; the “paternal Ube3a-YFP in brain (GFP immunohistochemistry)” value is reported as “successfully upregulated paternal Ube3a-YFP throughout the brain”.
